Columns and labels:
[1] = test system: CCL-1 mouse fibroblast cell line; experiment: MTT cytotoxicity assay, CCL-1; type: cell-based; details: SI ratio = IC50/MIC; column head CCL-1
Description: (§1) The cytostatic activity of the investigational compounds was determined using a standard MTT-based colorimetric assay for evaluating cell viability. HEK-293 and CCL-1 cells were harvested and seeded (100 µL/well) in 96-well plates at a density of 3 × 10^5. Following a 24 h incubation, the cells were treated with serial dilutions of the tested compounds in the concentration range of 200.0–12.5 µM. Following an exposure time of 72 h, a filter-sterilized MTT substrate solution (5 mg/mL in PBS) was added to each well of the culture plate. A further 1–4 h incubation allowed the formation of purple insoluble precipitates of the formazan dye. The latter was dissolved in an isopropyl alcohol solution containing 5% formic acid for absorbance measurement at 550 nm. The collected absorbance values were blanked against MTT-and isopropanol solution and normalized to the mean value of the untreated control (100% cell viability).
(§2) Semi-logarithmic “dose-response” curves were computed using nonlinear regression in GraphPad Prism® 8.0. The antiproliferative potential of the studied compounds was rated according to the calculated half-maximal inhibitory concentrations (IC50 values).

[2] = test system: HEK-293 (human embryonic kidney 293) cells; experiment: MTT cytotoxicity assay, HEK-293; type: cell-based; details: SI ratio = IC50/MIC; column head HEK-293
Description: as §1, §2

Row | Molecule | SI d CCL-1 [1] | SI d HEK-293 [2]
1 | Cc1nnsc1C(=O)N/N=C/c1c(Cl)c2ccccc2oc1=O [3a, N’-[(E)-(4-chloro-2-oxo-2H-1-benzopyran-3-yl)methylidene]-4-methyl-1,2,3-thiadiazole-5-carbohydrazide] | 84 | 130
2 | O=S(=O)(N/N=C/c1ccc(Cl)cc1)c1ccccc1 [5i, N’-[(E)-(4-chlorophenyl)methylidene]benzenesulfonohydrazide] | 892 | 679
3 | COc1cc(/C=N/NC(=O)c2snnc2C)ccc1O [3d, N’-[(E)-(4-hydroxy-3-methoxyphenyl)methylidene]-4-methyl-1,2,3-thiadiazole-5-carbohydrazide] | 3516 | 2979
4 | O=S(=O)(N/N=C/c1c[nH]c2ccc(OCc3ccccc3)cc12)c1ccccc1 [5c] | 945 | 95
5 | Cc1nnsc1C(=O)N/N=C/c1c[nH]c2ccc(OCc3ccccc3)cc12 [3c, N’-((E)-[5-(benzyloxy)-1H-indol-3-yl]methylidene)-4-methyl-1,2,3-thiadiazole-5-carbohydrazide] | 2242 | 4093
6 | COc1ccc2c(c1)c(/C=N/NS(=O)(=O)c1ccccc1)cn2C [5b, N’-[(E)-(5-methoxy-1-methyl-1H-indol-3-yl)methylidene]benzenesulfonohydrazide] | 14 | 82
7 | COc1ccc(/C=N/NS(=O)(=O)c2ccccc2)cc1OC [5j, N’-[(E)-(3,4-dimethoxyphenyl)methylidene]benzenesulfonohydrazide] | 146 | 260
8 | O=[N+]([O-])c1ccccc1/C=N/NS(=O)(=O)c1ccccc1 [5f, N’-[(E)-(2-nitrophenyl)methylidene]benzenesulfonohydrazide] | 237 | 327
9 | O=S(=O)(N/N=C/C=C/c1ccccc1)c1ccccc1 [5k, N’-[(1E,2E)-3-phenylprop-2-en-1-ylidene]benzenesulfonohydrazid] | 3380 | 2216
10 | O=[N+]([O-])c1ccc(/C=N/NS(=O)(=O)c2ccccc2)cc1 [5g, N’-[(E)-(4-nitrophenyl)methylidene]benzenesulfonohydrazide] | 1812 | 1819
11 | COc1ccc2[nH]cc(/C=N/NS(=O)(=O)c3ccccc3)c2c1 [5e, N’-[(E)-(5-methoxy-1H-indol-3-yl)methylidene]benzenesulfonohydrazide] | 31 | 95
12 | N’-[(E)-(3-hydroxy-4-methoxyphenyl)methylidene]benzenesulfonohydrazide [5h] | 469 | 696
13 | COc1ccc2c(c1)c(/C=N/NC(=O)c1snnc1C)cn2C [3b, N’-[(E)-(5-methoxy-1-methyl-1H-indol-3-yl)methylidene]-4-methyl-1,2,3-thiadiazole-5-carbohydrazide] | 2487 | 1244
14 | O=c1oc2ccccc2c(Cl)c1/C=N/NS(=O)(=O)c1ccccc1 [5a, N’-[(E)-(4-chloro-2-oxo-2H-1-benzopyran-3-yl)-methylidene]benzenesulfonohydrazide] | 267 | 463
15 | O=S(=O)(N/N=C/c1c[nH]c2ccc(Cl)cc12)c1ccccc1 [5d, N’-[(E)-(5-chloro-1H-indol-3-yl)methylidene]benzenesulfonohydrazide] | 11 | 97
